Measurements reported in US20130040853A1, “Context Specific Genetic Screen Platform to Aid in Gene Discovery and Target Validation” (Dana-Farber Cancer Institute Inc., priority 2010, published 2013).
Some results were stated once for a whole list of compounds, not compound by compound.

System: HMEL-BRAF^V600E melanocytes
Assay: In vivo functional genetic screen and secondary validation: kinase-transduced HMEL cells implanted in nude mice
Parameters: species or system human
Details: secondary validation, kinase transduced individually into HMEL-BRAF^V600E melanocytes
Excerpt: A ‘cancer-kinase’ library was constructed containing sequence-verified ORFs in a lentiviral vector for 110 of the 120 kinases reported to sustain somatic driver mutations in diverse human cancers. This library was pooled and introduced into a human HMEL-BRAF^V600E melanocyte model system engineered with BRAF^V600E and TERT as well as p53DD and CDK4-R24C to inactivate the […] pathways, respectively. The HMEL-BRAF^V600E melanocyte profile, while representing the most common clinically-definable genetic profile in human melanoma, is insufficient to drive efficient melanoma formation following orthotopic transplantation in the skin (penetrance of 10% and latency of 26 weeks). In contrast, 40% of HMEL-BRAF^V600E melanocytes transduced with the cancer kinase pools developed tumors with an average latency of 13 weeks (range 10-18 weeks).
In vivo functional genetic screens: Lentivirus were prepared by co-transfecting 293T cells with individual vector backbones and standard virus packaging systems for subsequent collection of viral supernatants. Viral supernatants were then pooled randomly to generate 8 pools of high-titer lentiviral stocks. HMEL cells were transduced with either GFP control lentivirus or each representative lentiviral pool in the presence of 8 ug/ml polybrene (Company). […]

B1: MAP2K4 WT: wild type MAP2K4 kinase ORF expressed from lentiviral vector in HMEL cells (protein, UniProt P45985 1-399, looked up)
chain: MAAPSPSGGGGSGGGSGSGTPGPVGSPAPGHPAVSSMQGKRKALKLNFANPPFKSTARFTLNPNPTGVQNPHIERLRTHSIESSGKLKISPEQHWDFTAEDLKDLGEIGRGAYGSVNKMVHKPSGQIMAVKRIRSTVDEKEQKQLLMDLDVVMRSSDCPYIVQFYGALFREGDCWICMELMSTSFDKFYKYVYSVLDDVIPEEILGKITLATVKALNHLKENLKIIHRDIKPSNILLDRSGNIKLCDFGISGQLVDSIAKTRDAGCRPYMAPERIDPSASRQGYDVRSDVWSLGITLYELATGRFPYPKWNSVFDQLTQVVKGDPPQLSNSEEREFSPSFINFVNLCLTKDESKRPKYKELLKHPFILMYEERAVEVACYVCKILDQMPATPSSPMYVD
modifications: full-length
notes: wild type MAP2K4 kinase ORF expressed from lentiviral vector in HMEL cells
time to tumor formation: ≤ 16 weeks
